Assay results as given in PubChem BioAssay AID1347076 (National Center for Advancing Translational Sciences (NCATS), 2019).
Among all 400,000 compounds or so, about 13,000 (3.2%) were called active. The inconclusive results got no clear call from the source; some entries with a clear call stand among them for comparison. Calls follow the shape of the dose curve; as a rule, active = well fitted cell-killing curve with a large enough effect; inconclusive = small, poorly fitted or top-dose-only effect, or effect the other way; inactive = flat fitted curve, though single readings scatter. Potencies of inconclusive entries are doubtful fits and often do not repeat.
% is scaled to controls: 0 for no effect and ±100 for the full control effect; potency is read from the fitted curve at half-maximal effect.

Experiment: qHTS assay for MDR1-selective chemotherapeutics: Primary screen using the drug-selected MDR subline cells KB-V1; also: nearly all actives have a fitted effect of over 60% in size
Conditions: KB-V1 MDR cells viability, CellTiter-Glo, 72 h; activity change, negative = cytotoxicity: at 46.1 µM (top of the series)
In short: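 Cytotoxicity via CellTiter-Glo luminescence after 72 h compound exposure at 37 degrees C. Cells: drug-selected KB-V1 line, DMEM phenol-red free plus 10% FBS. Compounds tested at multiple concentrations; normalized data fitted to concentration-effect curves.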
With `CCCCCCCCN1C(=O)[C@H](CC(=O)NCc2ccc(OC)c(OC)c2)C[C@@]2(C(=O)OC)CC(C)(C)CC=C12` the Potency was active: 20.6 µM.
In the case of `C[n+]1c(/C=C/c2ccnc3ccccc23)cc(/C=C/c2ccnc3ccccc23)c2ccccc21`, the Potency is reported as “inactive”.
For `CCn1nnnc1Sc1nc(C)nc2scc(-c3ccccc3)c12`, the Potency was “inactive”.
For `COc1cc(O)c(C(CCN2CCN(c3ccccc3)CC2)c2cc(OC)c(OC)c(OC)c2)c(OC)c1` (stereo not drawn), the Potency was inconclusive: 29.1 µM [rising, single point].
For `Cc1cc(N2CCN(C(C(=O)NC3CCCC3)c3ccc(F)cc3)CC2)c2ccccc2n1` (stereo not drawn), the Potency was inconclusive: 18.4 µM [cytotoxic, partial curve].
In the case of `Cc1ccc2cc(CNC[C@H]3O[C@@H](n4cc(C)c(=O)[nH]c4=O)C[C@@H]3O)c(N3CCOCC3)nc2c1`, the activity change, negative = cytotoxicity is reported as inconclusive: -0.511%.
In the case of `COc1ccc2c(c1)c(=O)oc1c(C)c(OCc3cc(C(=O)O)oc3C)ccc12`, the Potency is reported as inconclusive: 0.0092 µM [rising, full curve, poor fit].
With `COc1ccc(N(CC(=O)N2CCc3ccccc3C2)S(=O)(=O)c2ccccc2)cc1` the Potency was inconclusive: 6.51 µM [cytotoxic, partial curve].
In the case of `COc1ccc2cc3cc(C(=O)N(C)C4CCCCC4)oc3nc2c1`, the Potency is reported as inconclusive: 29.1 µM [cytotoxic, single point].
In the case of `FC(F)c1nnc2ccc(Cl)nn12`, the Potency is reported as inconclusive: 29.1 µM [rising, single point].
For `COc1ccc(N2CCN(C(=O)CNS(=O)(=O)c3ccc(C)cc3)CC2)cc1`, the Potency was “inactive”.
For `CCOC(=O)c1nnn(C(CC)C(=O)Nc2ccc(F)cc2)c1C(=O)OCC` (stereo not drawn), the Potency was inconclusive: 4.61 µM [rising, single point].
In the case of `C/C(=N\NC(=S)NCc1ccccc1)c1cccc(Br)c1`, the Potency is reported as inconclusive: 23.1 µM [cytotoxic, single point].
With `COc1cccc(/C=C2\C(=O)C(=O)c3ccccc32)c1` the Potency was inconclusive: 35.5 µM [cytotoxic, single point].
In the case of `COc1cc(C)nc(-c2csc(C)n2)n1`, the Potency is reported as “inactive”.
For `COc1ccc(C(=O)N2CCC2(C)C(=O)NC(C)C)c(OC)c1` (stereo not drawn), the Potency was inconclusive: 2.91 µM [rising, partial curve].
In the case of `CC(C)(C)OC(=O)N1CCC(c2c(C(=O)N3CCN(C(=O)c4ccco4)CC3)cnn2-c2cccc(Cl)c2)CC1`, the Potency is reported as “inactive”.
For `COc1ccc(NC(=O)CSc2nnc(NC(=O)C3CCC3)s2)c(OC)c1`, the Potency was inconclusive: 29.1 µM [rising, single point].
For `COc1ccccc1OCC(=O)NC1CCCCCCC1`, the Potency was active: 20.6 µM.
With `C[C@@H]1COc2cccc(N3CCC[C@H]3CO)c2S(=O)(=O)N1` the Potency was inconclusive: 29.1 µM [rising, single point].
With `CCOC(=O)c1cnc2c(c(C)nn2CC)c1NCCN1CCOCC1` the Potency was inconclusive: 0.651 µM [cytotoxic, full curve, poor fit].
For `Cc1c2cc(O)c(=O)cc-2oc2cc(O)c(O)cc12`, the Potency was inconclusive: 29.1 µM [cytotoxic, single point].
For `CCCCNC(=O)O[C@H]1C[C@@H]2CCN3C(=O)CCC[C@H]([C@H]1Cc1ccccc1)[C@H]23`, the Potency was inconclusive: 9.2 µM [cytotoxic, partial curve].
In the case of `N#C/C(=N\Nc1ccc(Cl)cc1)C(=N)N1CCCCCC1`, the Potency is reported as “inactive”.
With `CN1CCN(S(=O)(=O)c2ccc(Sc3nnnn3-c3ccccc3)c([N+](=O)[O-])c2)CC1` the Potency was inconclusive: 29.1 µM [cytotoxic, single point].
In the case of `CN1C(=O)/C(=N\OC(=O)c2cccc3ccccc23)c2ccccc21`, the Potency is reported as “inactive”.
With `CN(C)C(CNc1ccc(S(C)(=O)=O)cc1[N+](=O)[O-])Cc1ccccc1` (stereo not drawn) the Potency was inconclusive: 29.1 µM [cytotoxic, single point].
For `COc1ccc(-n2c(=S)[nH]c3ncccc3c2=O)cc1`, the Potency was inconclusive: 14.6 µM [rising, partial curve, poor fit].
In the case of `Cc1cc(C)c2c(=O)cc(C(=O)Nc3sc4c(c3C(=O)NCc3ccco3)CCCC4)oc2c1`, the Potency is reported as inconclusive: 29.1 µM [cytotoxic, single point].
For `CS(=O)(=O)CC[C@@H](C(=O)NCCc1ccccc1)N1Cc2ccccc2C1=O`, the Potency was “inactive”.
For `CCN1CCN(CC(=O)c2cc(Cl)ccc2Cl)CC1`, the Potency was inconclusive: 2.91 µM [rising, partial curve, poor fit].
With `COc1cc(C(=O)NCCN2C(=O)S/C(=C\c3cccs3)C2=O)cc(OC)c1OC` the Potency was inconclusive: 5.8 µM [cytotoxic, full curve].
In the case of `Cc1ccc(S(=O)(=O)NC(C(=O)N2CCN(S(=O)(=O)c3cccc(F)c3)CC2)C(C)C)cc1` (stereo not drawn), the Potency is reported as inconclusive: 7.31 µM [cytotoxic, partial curve, poor fit].
With `Cc1cc(C)c(OCCCNC2CCCC2)c(Br)c1` the Potency was inconclusive: 29.1 µM [cytotoxic, partial curve, poor fit].
For `N#Cc1ccccc1OCC(=O)OCC(=O)Nc1ccc2c(c1)OCO2`, the Potency was “inactive”.
For `NC(Cc1ccccc1)c1csc(Nc2ccc(C(=O)NCCO)cc2)n1` (stereo not drawn), the Potency was “inactive”.
For `COc1ccc(NC(=O)c2cc(-c3ccc(F)cc3OC)n[nH]2)c(C)c1`, the Potency was “inactive”.
With `Cn1nnnc1Sc1ncnc2scc(-c3cccc4c3sc3ccccc34)c12` the Potency was inconclusive: 29.1 µM [cytotoxic, single point].
For `O=C(CSc1ccc(S(=O)(=O)N2CCCC2)cn1)Nc1ccc([N+](=O)[O-])cc1C(F)(F)F`, the Potency was active: 5.17 µM.
For `Cc1cc(C)c(NC(=O)CS(=O)CC(=O)N2CCN(c3ccc(F)cc3)CC2)c(C)c1` (stereo not drawn), the Potency was inconclusive: 35.5 µM [cytotoxic, single point].
With `O=C(Nc1ccccc1O)c1cc(S(=O)(=O)N2CCOCC2)ccc1Cl` the Potency was inconclusive: 13 µM [cytotoxic, partial curve].
In the case of `Cc1nn(CC(=O)Nc2ccc3c(c2)nc2n3CCN(C3CCCCC3)C2)c(=O)c2ccccc12`, the Potency is reported as inconclusive: 23.1 µM [cytotoxic, single point].
With `O=C(Nc1nc(-c2ccccc2)cs1)NC1CCCCC1` the Potency was inconclusive: 29.1 µM [cytotoxic, single point].
In the case of `COc1ccc(-n2ccnc2SCC(=O)NCc2ccc3c(c2)OCO3)cc1`, the Potency is reported as inconclusive: 23.1 µM [cytotoxic, single point].
With `O=C(c1ccccc1)c1c[nH]c(C(=O)NCCCn2ccnc2)c1` the Potency was inconclusive: 13 µM [rising, partial curve].
In the case of `COc1ccc(C(=O)C(=O)N2CCN(C(=O)OCc3ccccc3)CC2)cc1`, the Potency is reported as inconclusive: 18.4 µM [cytotoxic, partial curve, poor fit].
With `COc1cc(NC(=O)c2cnc(NCc3ccccc3)nc2C)cc(OC)c1OC` the Potency was active: 10.3 µM.
With `Cc1ccc(C)c(S(=O)(=O)NCc2ccc(C(=O)NCc3ccccn3)cc2)c1` the Potency was inconclusive: 18.4 µM [cytotoxic, single point].
For `Cc1ccc(NC(=O)N2CCC3(CC2)Oc2ccccc2C(=O)N3Cc2ccc(F)cc2)cc1`, the Potency was “inactive”.
In the case of `COc1ccc(OC)c(C(O)c2ncc(-c3cccc(C(F)(F)F)c3)[nH]2)c1` (stereo not drawn), the Potency is reported as “inactive”.
In the case of `Nc1ccc(Cc2ccc(C=O)cc2)cc1`, the Potency is reported as “inactive”.
In the case of `COc1ccc(S(=O)(=O)N2CCOCC2)cc1NC(=O)c1ccc(Cl)cc1`, the Potency is reported as “inactive”.
For `OCC[C@H]1C[C@@H](O)[C@H](O)[C@]2(CCc3ccccc3CO2)O1`, the Potency was inconclusive: 32.6 µM [rising, single point].
For `O=C(CN1CCC(n2cnc3cc(F)ccc32)CC1)Nc1ccccc1Br`, the Potency was inconclusive: 29.1 µM [cytotoxic, single point].
In the case of `NNC(=S)NCc1ccc2c(c1)OCO2`, the Potency is reported as inconclusive: 14.6 µM [rising, partial curve].
In the case of `COc1ccc(C=C2SC(=S)NC2=O)cc1`, the Potency is reported as inconclusive: 29.1 µM [cytotoxic, single point].
In the case of `CCOC(=O)c1c(C)[nH]c(C(=O)N(C)CC(=O)Nc2ccc(OC)cc2)c1C`, the Potency is reported as “inactive”.
With `Cc1c2cnn(CC(=O)NC(C)C)c(=O)c2c(C)n1Cc1cccc(Cl)c1` the Potency was “inactive”.
With `CCN(CC(O)CON=C1c2ccccc2-c2ccccc21)S(=O)(=O)c1ccc(Cl)cc1` (stereo not drawn) the Potency was inconclusive: 18.4 µM [cytotoxic, partial curve, poor fit].
With `OCCN1CCN(CC/C=C2/c3ccccc3CSc3ccccc32)CC1` the Potency was “inactive”.
With `CCOc1ccc(/C=N/OCC(=O)Nc2ccc(OCc3ccccc3)cc2)cc1OC` the Potency was inconclusive: 16.4 µM [cytotoxic, partial curve, poor fit].
For `CCOc1ccc(NC(=O)CC2C(=O)N(c3ccccc3)C(=O)N2CCc2sccc2C)cc1` (stereo not drawn), the Potency was inconclusive: 16.4 µM [cytotoxic, single point].
In the case of `N#Cc1cc2c(nc1SCc1cccnc1)CCCC2`, the Potency is reported as inconclusive: 14.6 µM [cytotoxic, partial curve].
In the case of `O=C1Nc2ccc(S(=O)(=O)NCc3ccco3)c3cccc1c23`, the Potency is reported as inconclusive: 23.1 µM [cytotoxic, single point].
For `CN(CC(=O)Nc1ccccc1Cl)C(=O)c1cc(=O)[nH]c2ccccc12`, the Potency was inconclusive: 2.91 µM [cytotoxic, partial curve, poor fit].
In the case of `Cc1cc(C)nc(SCCn2c(N(C)Cc3ccccc3)nc3c2c(=O)n(C)c(=O)n3C)n1`, the Potency is reported as inconclusive: 3.26 µM [cytotoxic, full curve].
In the case of `CC1CCc2c(sc(NS(=O)(=O)c3ccccc3)c2C(=O)OC(C)C)C1` (stereo not drawn), the Potency is reported as “inactive”.
With `COc1ccc(S(=O)(=O)c2c(C(=O)c3ccc(C)c(C)c3)cnc3ccc(C)cc23)cc1` the Potency was “inactive”.
